Measurements as given in article PMC8801790.
These are yes or no findings as the source states them, for the method shown. Binding seen in cells or lysates may run through a third protein. Some binding calls cover weakened binding; strength is not graded here.

The chains behind the UniProt entries cited, without tags or fusion partners.
UniProt P60174: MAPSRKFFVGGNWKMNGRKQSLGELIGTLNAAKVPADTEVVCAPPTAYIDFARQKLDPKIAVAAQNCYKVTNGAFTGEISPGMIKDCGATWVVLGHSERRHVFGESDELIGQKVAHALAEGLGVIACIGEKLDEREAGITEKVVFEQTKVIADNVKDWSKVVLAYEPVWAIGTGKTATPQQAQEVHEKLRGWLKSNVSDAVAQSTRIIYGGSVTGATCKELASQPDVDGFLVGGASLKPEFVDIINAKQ
UniProt Q16665: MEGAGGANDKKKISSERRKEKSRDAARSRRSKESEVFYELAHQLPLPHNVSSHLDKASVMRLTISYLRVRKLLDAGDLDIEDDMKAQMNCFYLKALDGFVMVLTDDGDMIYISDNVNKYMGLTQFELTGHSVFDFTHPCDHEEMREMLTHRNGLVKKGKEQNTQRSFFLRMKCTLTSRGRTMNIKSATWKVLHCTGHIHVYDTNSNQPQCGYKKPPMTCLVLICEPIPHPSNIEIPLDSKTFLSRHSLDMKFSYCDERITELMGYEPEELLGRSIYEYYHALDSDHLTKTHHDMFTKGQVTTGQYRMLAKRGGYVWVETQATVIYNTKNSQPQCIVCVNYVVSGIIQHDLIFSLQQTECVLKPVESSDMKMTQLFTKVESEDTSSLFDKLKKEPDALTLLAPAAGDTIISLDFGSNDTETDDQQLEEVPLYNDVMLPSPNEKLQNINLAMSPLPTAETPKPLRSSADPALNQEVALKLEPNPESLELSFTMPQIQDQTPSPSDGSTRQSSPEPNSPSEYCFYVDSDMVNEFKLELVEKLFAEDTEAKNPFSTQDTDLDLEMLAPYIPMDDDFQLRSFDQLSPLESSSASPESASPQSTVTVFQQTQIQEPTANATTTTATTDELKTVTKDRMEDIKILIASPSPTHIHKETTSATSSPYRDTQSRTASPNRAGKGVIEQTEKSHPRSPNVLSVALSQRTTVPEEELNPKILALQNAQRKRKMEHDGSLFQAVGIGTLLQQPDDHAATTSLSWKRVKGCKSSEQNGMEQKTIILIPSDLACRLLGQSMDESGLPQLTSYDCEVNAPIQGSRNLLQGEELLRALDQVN

Biological target: Triosephosphate isomerase 1 (human (endogenous in RA patient monocytes)) (UniProt P60174)
Assay: co-IP; lysate of RA monocytes incubated with anti-human TPI1 antibody or rabbit IgG and protein A/G plus-agarose at 4°C overnight; beads washed five times with lysis buffer; immunoblot for HIF-1α

binding: binds
Substance: HIF-1α (from UniProt Q16665 1-826)
